PMC6917717
Results are given in words; binding and its absence hold for the method and conditions named. Some binding calls cover weakened binding; strength is not graded here.

Molecular target: YtfK (bacterial two-hybrid fusion) (E. coli) (UniProt P0ADE2)
Assay: two-hybrid; bacterial two-hybrid (T18 and T25 fragments of B. pertussis adenylate cyclase, pUT18c and pKT25) in cya-deficient E. coli BTH101, 30 °C; X-Gal plates with IPTG and β-galactosidase assay

Substance: SpoT (bacterial two-hybrid fusion) (from UniProt P0AG24 1-702)
- binding: binds
